Earlier results in patent US10877035B2, “Advanced drug development and manufacturing” (ICAGEN, LLC, priority 2006, dated 2020).

Molecular target: alpha-1-adrenergic (NAa1) receptors
Details: reported; cited from earlier work

Cc1cc2c(s1)Nc1ccccc1N=C2N1CCN(C)CC1 [olanzapine]
pKi: 6.3-7.6
